This note sets out measurements from publication PMC8384837.

Where a chain is given by its changes, count along the chain named. The list shows a part of the results. For some assays here: At the low end of the ranking, values are background and their order means little.

Holding throughout (details): yeast three-hybrid, YBZ-1, SC-Leu-His + 0.5 mM 3-AT, 4 days
In experiment [1] the target is T1, PUM1 PUF domain R4-APS N971A + H972P + Q975S (UniProt Q14671).
T1 sequence: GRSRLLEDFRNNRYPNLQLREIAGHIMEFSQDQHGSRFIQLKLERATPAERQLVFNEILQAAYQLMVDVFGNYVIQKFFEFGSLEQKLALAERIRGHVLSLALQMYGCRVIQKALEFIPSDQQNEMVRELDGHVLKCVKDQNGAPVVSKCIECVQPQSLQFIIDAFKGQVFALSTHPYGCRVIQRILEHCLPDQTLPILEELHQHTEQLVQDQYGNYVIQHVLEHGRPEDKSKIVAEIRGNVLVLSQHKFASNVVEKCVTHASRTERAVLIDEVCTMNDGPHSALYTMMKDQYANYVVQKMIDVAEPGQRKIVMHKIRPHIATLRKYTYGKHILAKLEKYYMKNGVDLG

Experiment [2] deals with T2, PUM1 PUF domain R4-AQS N971A + H972Q + Q975S (UniProt Q14671).
T2 sequence: T1 sequence with P145Q

The target in experiment [3] is T3, PUM1 PUF domain R4-AQY N971A + H972Q + Q975Y (UniProt Q14671).
T3 sequence: T1 sequence with P145Q, S148Y

Experiment [4] deals with T4, PUM1 PUF domain R4-ARA N971A + H972R + Q975A (UniProt Q14671).
T4 sequence: T1 sequence with P145R, S148A

In experiment [5] the target is T5, PUM1 PUF domain R4-ARG N971A + H972R + Q975G (Homo sapiens) (UniProt Q14671).
T5 sequence: T1 sequence with P145R, S148G

The target in experiment [6] is T6, PUM1 PUF domain R4-ARR N971A + H972R + Q975R (UniProt Q14671).
T6 sequence: T1 sequence with P145R, S148R

Experiment [7] has as its target T7, PUM1 PUF domain R4-ARS N971A + H972R + Q975S (UniProt Q14671).
T7 sequence: T1 sequence with P145R

Experiment [8] concerns the target T8, PUM1 PUF domain R4-ARV N971A + H972R + Q975V (Homo sapiens) (UniProt Q14671).
T8 sequence: T1 sequence with P145R, S148V

Experiment [9] has as its target T9, PUM1 PUF domain R4-AWP N971A + H972W + Q975P (UniProt Q14671).
T9 sequence: T1 sequence with P145W, S148P

Experiment [10] has as its target T10, PUM1 PUF domain R4-CCG N971C + H972C + Q975G (UniProt Q14671).
T10 sequence: T1 sequence with A144C, P145C, S148G

Experiment [11] addresses T11, PUM1 PUF domain R4-CCM N971C + H972C + Q975M (UniProt Q14671).
T11 sequence: T1 sequence with A144C, P145C, S148M

Experiment [12] addresses T12, PUM1 PUF domain R4-CFP N971C + H972F + Q975P (UniProt Q14671).
T12 sequence: T1 sequence with A144C, P145F, S148P

Experiment [13] has as its target T13, PUM1 PUF domain R4-CGC N971C + H972G + Q975C (UniProt Q14671).
T13 sequence: T1 sequence with A144C, P145G, S148C

For experiment [14], the target named is T14, PUM1 PUF domain R4-CMC N971C + H972M + Q975C (UniProt Q14671).
T14 sequence: T1 sequence with A144C, P145M, S148C

Experiment [15] concerns the target T15, PUM1 PUF domain R4-CMG N971C + H972M + Q975G (UniProt Q14671).
T15 sequence: T1 sequence with A144C, P145M, S148G

For experiment [16], the target named is T16, PUM1 PUF domain R4-CMS N971C + H972M + Q975S (Homo sapiens) (UniProt Q14671).
T16 sequence: T1 sequence with A144C, P145M

The target in experiment [17] is T17, PUM1 PUF domain R4-CMV N971C + H972M + Q975V (Homo sapiens) (UniProt Q14671).
T17 sequence: T1 sequence with A144C, P145M, S148V

Experiment [18] addresses T18, PUM1 PUF domain R4-CNC N971C + H972N + Q975C (UniProt Q14671).
T18 sequence: T1 sequence with A144C, P145N, S148C

In experiment [19] the target is T19, PUM1 PUF domain R4-CNG N971C + H972N + Q975G (UniProt Q14671).
T19 sequence: T1 sequence with A144C, P145N, S148G

Experiment [20] has as its target T20, PUM1 PUF domain R4-CNS N971C + H972N + Q975S (Homo sapiens) (UniProt Q14671).
T20 sequence: T1 sequence with A144C, P145N

With “GGCUAGAACUAGUGGAUCCCCCGGCGCCCGGCGGCUCGAGCCCGGGUAAGUGUAGAUAGUCUGCAUGCCGCCGGGCGCCAUGCCUGCAGGUCGACUCUAGAAAACAUG”, the binding signal (log2 enrichment (interaction score)) in experiment [1] is < -7.52; in experiment [2], < -5.96; in [3], < -6.29; in [4], < -6; in [5], -4.04; in experiment [6], < -8.31. In addition, the binding signal (log2 enrichment (interaction score)) in [7] was < -6.57; in experiment [8], -0.15; in experiment [9] it was < -5.7; in experiment [10], < -6.88; in experiment [11], < -6.1; in [12] it was -3.33. Also, the binding signal (log2 enrichment (interaction score)) was < -7.03 in experiment [13]; < -6.29 in experiment [14]; < -6.66 in experiment [15]; -1.17 in experiment [16]; -4.49 in [17]; < -5.83 in experiment [18]. Further, the binding signal (log2 enrichment (interaction score)) in experiment [19] was < -6.13; in [20] it was -0.21.
